{"source": "patent US8796227B2", "about": "“Peptides for inhibiting chemokine binding to chemokine receptors” (Biokine Therapeutics Ltd., priority 2002, dated 2014)", "experiment": "Immunity of the peptides: injection into mice, serum antibody binding to peptide (Elisa O.D.)", "type": "in vivo", "settings": "sera of mice after injection of the peptide; pre-immune serum showed no binding (FIG. 5)", "method": "The preimmune serum of the same mice used as a control. “Blank” is the O.D. level of antibody binding to the plastic (of the Elisa experiment), with no addition of peptides.\nFurther examination of BKT-P3 and BKT-P2 (both belonging to family 1) for the immunity of these peptides was performed, by injecting those peptides to mice. The result of the experiment is graphically illustrated in FIG. 5.", "data": [{"sequence": "SIFAHQTPTHKN [BKT-P3]", "values": [{"measurement": "Level of immunity (O.D.) of immune sera against the peptide", "result": "high O.D. levels"}]}, {"sequence": "SIPSHSIHSAKA [BKT-P2]", "values": [{"measurement": "Level of immunity (O.D.) of immune sera against the peptide", "result": "high O.D. levels"}]}]}
